The other results are listed elsewhere or left out. Further columns of the screen follow, without active or inactive calls. Most of these compounds were active or inconclusive in the main read-out, so they are no random draw. The note in brackets gives the kind of curve behind each potency; many fits are weak.
Test: IkB Signaling
Conditions: ABC-DLBCL IkBa-CBG/CBR dual luciferase ratio (green luciferase fused to IkBa over red control in OCI-Ly3 lymphoma cells), 4 h
How it was run: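 In this assay, an IκBα–CBG68 fusion accumulates when IKK-driven degradation is blocked; native CBR normalizes for cell number. OCI-Ly3 cells were treated 4 h with compound and doxycycline, then green and red light read after Chroma-Glo addition.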

[1] = measured here: control luc red channel unless noted

Cn1nnnc1SCCCNCc1cc(Cl)ccc1OCc1ccc(F)cc1
AC50 [1]: 3.98 µM [rising, single point]

Nc1c(C(=O)Nc2ccc(OC(F)(F)F)cc2)sc2nc(-c3ccncc3)ccc12
AC50 [1]: 12.6 µM [falling, partial curve]

Cc1nn2c(=O)cc(COC(=O)Cc3ccccc3)nc2s1
AC50 [1]: 100 nM [rising, full curve] [measured here: IkB-luc green channel]

CCc1ccc(-c2cn3c(n2)sc2cc(C(=O)NC4CCCCC4)ccc23)cc1
AC50 [1]: 3.16 µM [falling, full curve]

CC(=O)Nc1ccc(NS(=O)(=O)c2c(C(=O)N3CCC(C)CC3)c(C)n(C)c2C)cc1
AC50 [1]: 0.0316 µM [rising, full curve, poor fit]

COc1cccc(C(=O)Nc2cccc(OCc3cc(=O)n4c5c(sc4n3)CCCC5)c2)c1
AC50 [1]: 1.26 µM [falling, full curve]

COc1ccc2oc(=O)c(C(=O)NCCc3c(C)[nH]c4ccc(F)cc34)cc2c1
AC50 [1]: 20 µM [falling, partial curve]

COCCNc1oc(-c2ccccc2)nc1S(=O)(=O)c1ccc(Br)cc1
AC50 [1]: 39.8 µM [falling, single point]

COc1ccc2sc(N(Cc3cccnc3)C(=O)c3ccc4c(c3)OCCO4)nc2c1
AC50 [1]: 31.6 µM [falling, single point]

COc1ccc(O)c(/C=c2/sc3nc4cc(C)c(C)cc4n3c2=O)c1
AC50 [1]: 12.6 µM [falling, partial curve]

O=C1c2sc3nc4ccccc4n3c2C(=O)N1c1ccccc1Cl
AC50 [1]: 25.1 µM [falling, partial curve]

CCc1ccc(S(=O)(=O)N(C(=O)c2ccncc2)c2ccc3oc(C)c(C(=O)OC)c3c2)cc1
AC50 [1]: 10 µM [falling, partial curve]

COc1ccc(CC(=O)N2CCc3cc(OC)c(OC)cc3C2COc2cc(C)cc(C)c2)cc1OC (stereo not given)
AC50 [1]: 7.94 µM [falling, partial curve]

O=C(Nc1ccc(-n2nncc2-c2ccco2)cc1)c1cccc(F)c1
AC50 [1]: 15.8 µM [falling, partial curve]

CCOC(=O)c1ccc(N2C(=O)c3n[nH]c(-c4ccco4)c3C2c2ccc(C)cc2)cc1 (stereo not given)
AC50 [1]: 25.1 µM [falling, partial curve]

Cc1cc(C)cc(NC(=O)CCS(=O)(=O)c2cccc3nsnc23)c1
AC50 [1]: 0.0501 µM [falling, full curve, poor fit]

COc1cccc(NC(=O)C(=O)NCC(c2ccc3c(c2)OCO3)N2CCN(C)CC2)c1 (stereo not given)
AC50 [1]: 0.2 µM [falling, partial curve]

CCn1cc(C(=O)NCc2ccco2)c(=O)c2cc(S(=O)(=O)N3CCc4ccccc4C3)ccc21
AC50 [1]: 7.94 µM [falling, full curve, poor fit]

CCc1ccc(N(CC)C(=O)c2cc3c(=O)oc4ccc(C)cc4c3s2)cc1
AC50 [1]: 39.8 µM [falling, single point]

O=C(c1ccco1)N1CCN(C(=O)c2cc(-c3ccccn3)nc3ccc(Cl)cc23)CC1
AC50 (measured here: IkB-luc green channel): 39.8 µM [rising, single point]
AC50 (measured here: control luc red channel): 7.94 µM [falling, partial curve]

CCN(CC)C(=O)C1=CC(c2ccc3c(c2)OCO3)=NS(=O)(=O)N1C
AC50 [1]: 15.8 µM [falling, single point]

COC(=O)c1ccc(CN(Cc2ccc(OC)c(OC)c2)S(=O)(=O)c2cc(C(=O)Nc3cccc(C)c3)ccc2F)cc1
AC50 [1]: 2.51 µM [falling, full curve]

CCC(Oc1ccccc1)C(=O)Nc1ccc(OCc2cc(=O)n3ccc(C)cc3n2)cc1 (stereo not given)
AC50 [1]: 25.1 µM [falling, partial curve, poor fit]

COc1ccccc1CNC(=O)c1ccc2c(c1)N(Cc1ccc(C)cc1)CCS2
AC50 [1]: 12.6 µM [falling, partial curve]

CCn1nc(C(=O)OCC(=O)c2c[nH]c3ccccc23)c2ccccc2c1=O
AC50 [1]: 20 µM [falling, single point]

Clc1cccc(Nc2ncnc3c2cnn3-c2ccccc2)c1
AC50 [1]: 10 µM [falling, partial curve]

CCN(CC)S(=O)(=O)c1ccc2c(c1)N(CC(=O)NCC(C)c1ccccc1)C(=O)CO2 (stereo not given)
AC50 [1]: 7.94 µM [falling, single point]

CCn1cc(C(=O)N2CCN(c3ccccc3OC)CC2)c(=O)c2cc(S(=O)(=O)N3CCC(C)CC3)ccc21
AC50 [1]: 1 µM [falling, partial curve]

O=C(COc1ccccc1)N1CCN(c2ncnc3c2cnn3-c2ccccc2)CC1
AC50 [1]: 39.8 µM [falling, single point]

Cc1ccc(-n2ncc3c(N4CCCCCC4)ncnc32)cc1C
AC50 [1]: 15.8 µM [falling, partial curve]

CCOc1ccc(CNC(=O)CCc2cn(CC)c3ccccc23)cc1
AC50 [1]: 10 µM [falling, partial curve]

O=C(NCCc1ccccc1)c1ccc(CSc2nc3ccncc3n2Cc2cccc(F)c2)cc1
AC50 [1]: 10 µM [falling, partial curve]

CCCCOc1ccc(CN2C(=O)C(=O)c3cc(C)ccc32)cc1OC
AC50 [1]: 5.01 µM [rising, partial curve]

COc1ccccc1CNc1ccc(-c2nc(-c3cccc(C)c3)no2)cc1[N+](=O)[O-]
AC50 [1]: 1 µM [rising, full curve]

CCOc1ccccc1N1CC(c2nc3ccccc3n2CCCCOc2cc(C)ccc2C)CC1=O (stereo not given)
AC50 [1]: 12.6 µM [falling, partial curve]

CC(C)CCNC(=O)c1cc(Sc2ccc(F)cc2F)nc2ccccc12
AC50 [1]: 0.794 µM [rising, full curve]

Cc1ccc2c(c1)c1ncnc(N3CCc4ccccc4C3)c1n2C
AC50 [1]: 31.6 µM [falling, single point]

CCOc1ccccc1-n1c(SCC(=O)N2CCCC2)nnc1-c1ccoc1C
AC50 [1]: 15.8 µM [falling, partial curve]

CCOC(=O)c1cnc2c(C)cc(C)cc2c1Nc1ccc(OCc2ccccc2)cc1
AC50 [1]: 25.1 µM [falling, partial curve]
